Earlier results as cited in patent publication US5696153A, “Therapeutic regimen for treating patients” (priority 1996, dated 1997).

Details: same dose, twenty-one day schedule; cited from earlier work

## CC(=O)O[C@H]1C(=O)[C@@]2(C)[C@H]([C@H](OC(=O)c3ccccc3)[C@]3(O)C[C@H](OC(=O)[C@H](O)[C@@H](NC(=O)c4ccccc4)c4ccccc4)C(C)=C1C3(C)C)[C@]1(OC(C)=O)CO[C@@H]1C[C@@H]2O [taxol]
  effectiveness and toxicity, three hour vs twenty-four hour infusion: equal effectiveness and less drug toxicity
